Assay results from US20130012491A1, “PYRIMIDINE DERIVATIVES FOR USE AS SPHINGOSINE 1-PHOSPHATE 1 (S1P1) RECEPTOR AGONISTS” (GLAXO GROUP LIMITED, priority 2010, published 2013).
Counter-ions that a name gives are not always drawn. Some results were stated once for a whole list of compounds, not compound by compound.

By UniProt entry, the sequences of proteins in these tests, tags left out.
UniProt P21453, whole entry: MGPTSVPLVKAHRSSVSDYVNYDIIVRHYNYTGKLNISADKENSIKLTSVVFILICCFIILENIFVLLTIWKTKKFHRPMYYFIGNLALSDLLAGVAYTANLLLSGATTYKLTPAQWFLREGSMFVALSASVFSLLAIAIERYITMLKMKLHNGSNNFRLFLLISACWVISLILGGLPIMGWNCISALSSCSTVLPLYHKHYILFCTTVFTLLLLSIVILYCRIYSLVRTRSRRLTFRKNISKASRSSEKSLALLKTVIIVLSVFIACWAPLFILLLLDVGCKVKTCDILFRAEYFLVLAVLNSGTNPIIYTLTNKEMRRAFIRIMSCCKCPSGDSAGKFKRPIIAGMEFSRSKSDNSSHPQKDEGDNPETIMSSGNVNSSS

The molecules below were run against T1, S1P1 receptor (human Endothelial Differentiation Gene 1 (EDG1)) (Homo sapiens, UniProt P21453) (assay: S1P1 Tango assay). Details: agonist, EDG1-bla/U2OS cells, beta-lactamase FRET readout.
T1 construct: TEV protease site; Gal4-VP16 transcription factor; expressed in transfected cells; host or cells: EDG1-bla/U2OS cells (Tango GPCR-bla U2OS parental cell line)
Format: cell-based

Row | SMILES | pEC50
1 | CCc1c(CCN2CCC(C(=O)O)C2)cccc1-c1cnc(-c2ccc(OC(C)C)c(Cl)c2)nc1 (centres unmarked) [Example 29, 1-{2-[3-(2-{3-chloro-4-[(1-methylethyl)oxy]phenyl}-5-pyrimidinyl)-2-ethylphenyl]ethyl}-3-pyrrolidinecarboxylic acid] | ≤ 7
2 | CCc1c(CN(C)CC(=O)O)cccc1-c1cnc(-c2ccc(CC(C)C)c(C#N)c2)nc1 [Example 21, N-[(3-{2-[3-cyano-4-(2-methylpropyl)phenyl]-5-pyrimidinyl}-2-ethylphenyl)methyl]-N-methylglycine trifluoroacetate] | ≤ 7
3 | CCc1c(CN2CCC(C(=O)O)CC2)cccc1-c1cnc(-c2ccc(OC(C)C)c(C(F)(F)F)c2)nc1 [Example 13, 1-[(2-ethyl-3-{2-[4-[(1-methylethyl)oxy]-3-(trifluoromethyl)phenyl]-5-pyrimidinyl}phenyl)methyl]-4-piperidinecarboxylic acid] | ≤ 7
4 | CCc1c(CN(C)CC(=O)O)cccc1-c1cnc(-c2ccc(OC(C)C)c(C(F)(F)F)c2)nc1 [Example 8, N-[(2-ethyl-3-{2-[4-[(1-methylethyl)oxy]-3-(trifluoromethyl)phenyl]-5-pyrimidinyl}phenyl)methyl]-N-methylglycine] | ≤ 7
5 | CCc1c(CN2CCC(C(=O)O)CC2)cccc1-c1cnc(-c2ccc(OC(C)C)c(Cl)c2)nc1 [Example 20, 1-{[3-(2-{3-chloro-4-[(1-methylethyl)oxy]phenyl}-5-pyrimidinyl)-2-ethylphenyl]methyl}-4-piperidine carboxylic acid] | ≤ 7
